# Primary screen of a compound library

Data taken from ChEMBL document CHEMBL3988442, “University of Dundee, Small-Polar-MMV Screening Library” (2021).

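Viability assay of Plasmodium falciparum sporozoites; the read-out is not stated. The concentration is filed as 10 mM, unlikely as a test dose, so the dose is not known. Higher reads as lower viability (inferred: compounds with an IC50 in retests scored well above the rest). Strong results were mostly tested again. Of about 34,000 compounds tested this way, about 280 (0.84%) reached 50% or more in at least one test.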

Each number is a percent effect as filed.
The controls that fix the scale are not given in the record; negative values are as filed.
This is an unselected part of the compounds tested.
Two or more numbers in one place are separate tests of the same structure; such repeats can differ widely.

compound,effect
O=C(O)C(F)(F)F.[H][C@@]12COC[C@]1(COCC)CN(Cc1ccc(F)c(F)c1)C2,0.8439
CCn1ncc(S(=O)(=O)N[C@@H]2CCC[C@@H](n3ccnc3)[C@@H]2O)c1C,2.007
COCCCNC(=O)c1cc(-c2cnc(N3CCOCC3)nc2)cn1C.O=C(O)C(F)(F)F,9.536
COc1ccc2c(c1)OC1(CCN(Cc3cccc(C)c3)CC1)CC2=O,-13.35
CN(C1CCN(c2ccccn2)CC1)S(=O)(=O)c1ccc(F)cc1,12.8
CNC(=O)C(NC(C)=O)c1ccc(F)c(F)c1 (stereo not shown),-12.18
Cc1cnn(C2CCCN(C(=O)Cc3ccc(-n4cccn4)cc3)C2)c1 (stereo not shown),-24.26
COc1cc(F)c(S(=O)(=O)NCc2ccnc(N(C)C)n2)cc1OC,0.1776
COc1nn(C)c2c1CCCN(C(=O)c1cc[nH]n1)C2,-0.6857
CCOc1ccccc1C(CC(=O)Nc1ccccc1F)NC(C)=O (stereo not shown),5.111
Cc1noc(C)c1CN1CCN(CC2CC2)c2ncccc2C1.O=C(O)C(F)(F)F.O=C(O)C(F)(F)F,-8.42
CC(C)c1ncc2c(n1)CN(Cc1nc3c(F)cccc3[nH]1)CC2,8.703
CN(CC(=O)N1CCCCC1c1nc(C(C)(C)C)cs1)C1CC1 (stereo not shown),12.42
O=c1ccncn1Cc1csc(C2CC2)n1,-0.9858
COc1cccc(OCC(=O)N2CCOc3ccncc32)c1,-1.754
[H][C@@]12C[C@H](C(=O)N3CCOCC3)[C@@]([H])(CN(S(C)(=O)=O)C1)O2,-2.539
NC(=O)c1cc(C2CCCN(Cc3ccc4c(c3)OCCO4)C2)n[nH]1 (stereo not shown),-2.865
O=C(O)C(F)(F)F.[H][C@@]12C[C@H](C)O[C@]1([H])CCN(S(=O)(=O)c1c(C)nn(C)c1C)C2,4.466
N#Cc1ccc(C(=O)NS(=O)(=O)c2ccc(C#N)c(Cl)c2)cc1,-8.171
CNC(=O)c1cc2c(nc1NCC1CC1)CCN(c1ccncn1)CC2.O=C(O)C(F)(F)F,-11.84
O=C(O)C(F)(F)F.O=C(O)C(F)(F)F.[H][C@]12OCCC[C@]1([H])N(C(=O)c1cccc(C)n1)C[C@H]2OCc1cccnc1,-3.691
CN(Cc1ncc(-c2ccccc2C(=O)O)s1)c1ncccn1,4.748
CCn1cc(CN2CCN(CC(O)c3cc(C)ccc3C)CC2)c(C)n1 (stereo not shown),8.819
COCCN1CCCC1c1nccnc1Nc1ncc(C)s1 (stereo not shown),9.54
CN1CC2(CCCN(Cc3nnc(-c4ccco4)o3)CC2)OC1=O (stereo not shown),-3.132 & -3.886
Cc1cc(C)n(CCN2CCOC(CNc3cccnn3)C2)n1 (stereo not shown),9.308
CC(C)(O)CN1CCN(C(=O)c2ccc(Cl)c3cccnc23)CC1,4.135
c1cnnc(N2CCCC2CNc2ncnc3ccccc23)c1 (stereo not shown),1.909
O=C(CCN1CCCC1c1ccccn1)N1CCc2ccccc2C1 (stereo not shown),-4.618
Cc1ccc(NC2CCN(C(=O)CN(C)C3CC3)CC2)nn1,-10.74
CC(C)c1nnc(NCc2cc3n(n2)CCNC3)s1,-41.35 & -43.64 & 5.586
CCC1CN(C(=O)c2cccc(OCc3cscn3)c2)CCO1 (stereo not shown),7.848
Cc1cnn(CCNCC(=O)NCC2(c3ccccc3)CC2)c1,9.082
O=C(O)C(F)(F)F.O=C(O)C(F)(F)F.[H][C@@]12COC[C@]1(COCc1ccccn1)CN(Cc1cccc(OC)c1)C2,-1.07
CCOCCCC(=O)NCc1cn2cc(Br)ccc2n1,9.132
N#Cc1cccc(C(=O)N2CCC(Nc3cccnn3)CC2)c1,2.537
Cc1ccsc1CN(C)C(=O)Cn1nc(-c2ccc(F)cc2)oc1=O,2.142
CN(C)c1ccc(CC2CCCN(c3cnccn3)C2)nn1 (stereo not shown),-18.86
CCCc1cc(=O)[nH]c2nnc(SCC(=O)NCc3ccc(C)cc3)n12,-5.313
COc1ccc2c(=O)n(CC3CCCCN3C)ccc2c1OC (stereo not shown),-3.432
COc1cccc(-c2nc(C)c(C(=O)N[C@@H](C)C(=O)O)s2)c1,-4.825
CN(CCCSc1ccccc1)C(=O)Cn1ncc(N(C)C)cc1=O,-10
Cc1cc(O)nc(C2CCN(C(=O)CO)CC2)n1,1.878
C[C@]1(O)CN(Cc2cccc(C(=O)O)c2)CC[C@@H]1Oc1cccc(F)c1,9.707
[H][C@@]12CCCO[C@]1([H])[C@H](NS(C)(=O)=O)CN(C(=O)c1ccccn1)C2,-2.735
CC(C)C1CN(C(=O)c2cc(F)cc3[nH]cnc23)CCS1 (stereo not shown),-19.69
Cn1cnc2c1CCN(Cc1nc(-c3ccsc3)no1)C2,10.44 & -8.931 & 28.83
Cc1cnn(CC2CN(CCc3cccs3)CCO2)c1 (stereo not shown),0.4601
Cc1nc(CN2CCCN(C(=O)c3ccccn3)CC2)oc1C,-1.618
Cn1nc(CNC(=O)c2ccc(Cl)cc2)c2c1CCOC2,-6.816
O=c1cc(CN2CCCC(CCc3c(F)cccc3F)C2)[nH]c(=O)[nH]1 (stereo not shown),-18.47
O=C(CSC1=NS(=O)(=O)c2cc(F)ccc2N1)Nc1ccc(Cl)c(Cl)c1,9.4

Once more, the final 6:

For Cn1cnc2c1CCN(Cc1nc(-c3ccsc3)no1)C2 the result was 10.44% & -8.931% & 28.83%.
For Cc1cnn(CC2CN(CCc3cccs3)CCO2)c1 (stereo not shown) the result was 0.4601%.
For Cc1nc(CN2CCCN(C(=O)c3ccccn3)CC2)oc1C the result was -1.618%.
For Cn1nc(CNC(=O)c2ccc(Cl)cc2)c2c1CCOC2 the result was -6.816%.
For O=c1cc(CN2CCCC(CCc3c(F)cccc3F)C2)[nH]c(=O)[nH]1 (stereo not shown) the result was -18.47%.
For O=C(CSC1=NS(=O)(=O)c2cc(F)ccc2N1)Nc1ccc(Cl)c(Cl)c1 the result was 9.4%.